{"sequences": {"note": "The chains behind the UniProt entries cited, without tags or fusion partners.", "UniProt O60260": "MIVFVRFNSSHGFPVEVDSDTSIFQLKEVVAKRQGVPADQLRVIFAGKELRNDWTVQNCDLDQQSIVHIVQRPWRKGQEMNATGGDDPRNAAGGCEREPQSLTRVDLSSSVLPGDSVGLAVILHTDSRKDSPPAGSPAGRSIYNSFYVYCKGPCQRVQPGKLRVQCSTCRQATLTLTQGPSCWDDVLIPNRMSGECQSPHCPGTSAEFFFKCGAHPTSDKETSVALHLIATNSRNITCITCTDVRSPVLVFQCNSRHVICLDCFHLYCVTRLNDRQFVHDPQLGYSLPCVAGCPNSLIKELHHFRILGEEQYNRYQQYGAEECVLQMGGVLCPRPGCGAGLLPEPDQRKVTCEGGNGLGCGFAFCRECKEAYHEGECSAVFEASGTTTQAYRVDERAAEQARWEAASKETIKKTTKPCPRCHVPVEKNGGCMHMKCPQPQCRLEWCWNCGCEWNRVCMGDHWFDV"}, "source": "paper PMC6078466", "key": {"[1]": {"molecular_target": "T1, mitostatin (human (endogenous in HUVEC)) (UniProt Q9BT92)", "T1 sequence": "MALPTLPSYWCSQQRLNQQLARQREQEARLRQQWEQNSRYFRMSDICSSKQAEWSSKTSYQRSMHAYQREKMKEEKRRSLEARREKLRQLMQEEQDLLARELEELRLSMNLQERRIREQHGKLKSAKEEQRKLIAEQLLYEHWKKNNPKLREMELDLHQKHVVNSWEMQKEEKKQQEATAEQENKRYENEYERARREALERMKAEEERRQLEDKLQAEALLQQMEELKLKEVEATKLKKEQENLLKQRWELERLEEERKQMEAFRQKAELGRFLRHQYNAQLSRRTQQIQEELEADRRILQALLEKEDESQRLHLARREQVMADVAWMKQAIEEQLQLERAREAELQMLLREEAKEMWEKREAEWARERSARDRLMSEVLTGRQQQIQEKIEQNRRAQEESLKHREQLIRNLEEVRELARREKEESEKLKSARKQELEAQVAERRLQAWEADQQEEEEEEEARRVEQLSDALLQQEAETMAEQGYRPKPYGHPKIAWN", "experiment": "co-IP; endogenous proteins of HUVEC treated with vehicle or endorepellin; immunoprecipitated for mitostatin or for Parkin, immunoblotted for mitofusin 2, Parkin or mitostatin; control rabbit or mouse IgG-G2"}, "[2]": {"molecular_target": "T1, mitostatin (human (endogenous in HUVEC))", "experiment": "condition: only basal conditions, HUVEC without endorepellin; co-IP; endogenous proteins of HUVEC under basal conditions (no endorepellin); immunoprecipitated for mitostatin or for Parkin, immunoblotted for Parkin or mitostatin"}}, "note": "These are yes or no findings as the source states them, for the method shown. In cells and extracts the contact can be indirect. Some entries that bind do so weakly or less than the wild type.", "data": [{"substance": "Parkin (from UniProt O60260 1-465) (enzyme)", "values": [{"measurement": "binding", "setting": "[1]", "value": "binds"}, {"measurement": "binding", "setting": "[2]", "value": "no binding"}]}]}
